# Assay results: US20150328109A1, “DERMAL COMPOSITIONS CONTAINING UNNATURAL HYGROSCOPIC AMINO ACIDS” (MEDPHARM LIMITED, priority 2012, published 2015)
# Some results were stated once for a whole list of compounds, not compound by compound.
# Assays:
# Type in all cases: cell-based, human
# Psoriatic tissues = test: Tissue viability (MTT) of psoriatic tissue during 6 day treatment; conditions: 6 day dosing period, of the untreated controls
# Source text: A human cell based in vitro psoriatic tissue model consisting of psoriatic fibroblasts and normal keratinocytes was used in this study. […] GM-CSF is a key activator of the innate immune system involved in chronic inflammatory and autoimmune diseases including psoriasis (Löntz et al 1995), where macrophages, granulocytes, neutrophils, eosinophils and dendritic cells can contribute to tissue damage and disease progression (Krinner 2007). GM-CSF stimulates stem cells to produce granulocytes and other macrophages and subsequently activates these differentiated immune cells. GM-CSF has also been identified as an inflammatory mediator in autoimmune disorders with elevated levels of GM-CSF mRNA or protein being measured in a variety of inflammatory sites including in allergic and psoriatic patients, arthritic and asthmatic patients (Plater-Zyberk et al 2008). Numerous in vivo studies over the past few years have shown that blockade of GM-CSF via neutralising antibodies can prevent or even cure pro-inflammatory diseases in various models of inflammation including arthritis experimental autoimmune encephalitis, psoriasis (Schon et al 2000), and lung disease (Plater-Zyberk et al 2008). […] Due to the importance of GM-CSF in psoriasis it was selected for analysis in this study.
# In this investigation two types of RHE tissues were used, which were healthy and psoriatic tissue sourced from the MatTek Corporation (Ashland, Mass.). For simplicity the protocol below refers to both tissue types as RHE tissues and all media as assay medium as both tissues were treated in the same manner. The only exception was that two different types of media were required for the different types of tissue (healthy and psoriatic tissues). […]
# RHE tissues [1] = test: RHE irritation assessment Method 1: SkinEthic Skin Irritation Test-42 bis assay (MTT), plus 24 h contact time; conditions: 5 and 1% w/v α-H-G, 10 and 1% w/v L-h-S in water
# Source text: The purpose of this experiment was to investigate the potential of alpha-hydroxyglycine (α-H-G) and L-homoserine (L-h-S) to cause skin irritation. The method was based on the validated SOP for the “The SkinEthic Skin Irritation Test-42 bis assay” in accordance to OECD guideline Test No. 439: In Vitro Skin Irritation. The protocol is provided in Section 1.2. Further details on the method can be found in the SkinEthic™ RHE SOP, Version 2.1 (July 2009), SkinEthic skin irritation test-42 bis test method for the prediction of acute skin irritation of chemicals: 42 minutes application+42 hours post-incubation. Available at: [http://ecvam.jrc.ec.europa.eu].
# In addition, a further experiment was performed where the contact time of the test solution with the tissue was increased to 24 h. Following which point an MTT assay was used to determine the tissue viability and the test solutions potential to cause irritation.
# The following steps were completed on receipt of the tissues: • (i) Wells of 6-well plates were filled with 1 mL growth culture medium. • (ii) Tissue were removed from their packaging, cleaned to remove the transport agarose and inspected for signs of damage; damaged tissues were discarded. • (iii) The tissue were transferred into the growth culture medium then incubated at 37° C., 5% CO2 until application of the test solution.
# 1.2.1.1.6 Applications of 5 and 1% w/v α-H-G and 10 and 1% w/v L-h-S and Controls • (i) 16 μL±0.5 μL of the test solutions (5% w/v α-hydroxyglycine (α-H-G) in water, 1% w/v α-hydroxyglycine (α-H-G) in water, 10% w/v L-homoserine (L-h-S) in water, 1% w/v L-homoserine (L-h-S) in water) and negative (PBS) and positive (5% SDS) controls were dispensed onto the top of the epidermal tissue, using positive displacement pipette. The test solutions or controls were distributed over the surface epidermis using the tip of the pipette. • (ii) A nylon mesh was placed over the surface of the tissue using forceps and the plate lid was replaced. • (iii) The plates from Step (ii) were either retained in the laminar flow cabinet at room temperature for 42 minutes or incubated at 37° C., 5% CO2 for 24 h.
# 1.2.1.1.7 Rinsing and Drying Steps • (i) Following treatment the nylon mesh was removed from the surface of the tissue. • (ii) The tissues were rinsed 25 times with PBS (1 mL) at a distance of 5-8 cm from the insert to remove all residual Test Item from the epidermal surface. • (iii) The inserts from Step (ii) were emptied and dried on sterile absorbent paper. • (iv) The surface of the Stratum corneum was dried with a cotton tip. • (v) The washed tissue from Step (iv) was transferred in a fresh 6 well culture plate prefilled with 2 mL of warmed growth culture medium, […]
# RHE tissues [2] = test: RHE irritation assessment Method 2: Mattek's MTT effective time (ET-50) assay; conditions: 10% w/v N-H-S, 1% w/v N-H-G, 10% w/v L-Serine, 10% w/v Glycine in water
# Source text: Method 1 was used to investigate the potential for alpha-hydroxylglycine (α-H-G) and L-homoserine (L-h-S) to cause skin irritation. The protocol is primarily designed and validated for single compounds rather than solutions. Therefore to provide further insight into the potential of N-hydroxyserine and N-hydroxylglycine to cause skin irritation a second protocol was investigated using Mattek's MTT effective time (ET-50) assay which is designed to test mixtures of compounds. In addition two commercially available amino acid related compound (L-serine and glycine) were selected and tested as comparators for N-hydroxyserine and N-hydroxylglycine. […] As a general guideline, the following groupings can be used in assigning expected in vivo irritancy responses based on the ET-50 results obtained: The irritation assessment of the solutions was performed using the protocol described below. Each of the test solutions; […] Damaged tissues were discarded. • (iii) The tissue were transferred into the assay medium and incubated at 37° C., 5% CO2 until the application of the test solutions; […] […] Using a pipette the extraction solution was mixed and made visually homogenous. • (ix) The solution from Step (viii) was transferred in to n=3 wells (200 μL per well) using an automatic pipette of a 96 well plate and the optical density was measured at a wavelength of 570 nm.
# [3] = 42 min exposure + 42 h post-incubation
Structure (SMILES),tissue viability for the duration of the experiment (Psoriatic tissues),Tissue viability relative to negative control (RHE tissues [1]; [3]),Tissue viability relative to negative control (RHE tissues [1]; 24 h exposure),expected in vivo irritancy from ET-50 (RHE tissues [2])
N[C@@H](CCO)C(=O)O [L-homoserine],above 50%,over 50%,over 50%,
"O=C(O)CNO [N-hydroxyglycine, N-Hydroxyglycine]",above 50%,,,non-irritating (24 non-irritating)
O=C(O)[C@H](CO)NO [N-hydroxyserine],above 50%,,,
"NC(O)C(=O)O (stereo not drawn) [α-hydroxyglycine, 2-Amino-2-hydroxyacetic acid]",,over 50%,over 50%,
